# Percent effect of library compounds

By UniProt entry, the sequences of proteins in these tests, tags left out. Residues count along the entry.
UniProt Q8IDJ8, 1-583: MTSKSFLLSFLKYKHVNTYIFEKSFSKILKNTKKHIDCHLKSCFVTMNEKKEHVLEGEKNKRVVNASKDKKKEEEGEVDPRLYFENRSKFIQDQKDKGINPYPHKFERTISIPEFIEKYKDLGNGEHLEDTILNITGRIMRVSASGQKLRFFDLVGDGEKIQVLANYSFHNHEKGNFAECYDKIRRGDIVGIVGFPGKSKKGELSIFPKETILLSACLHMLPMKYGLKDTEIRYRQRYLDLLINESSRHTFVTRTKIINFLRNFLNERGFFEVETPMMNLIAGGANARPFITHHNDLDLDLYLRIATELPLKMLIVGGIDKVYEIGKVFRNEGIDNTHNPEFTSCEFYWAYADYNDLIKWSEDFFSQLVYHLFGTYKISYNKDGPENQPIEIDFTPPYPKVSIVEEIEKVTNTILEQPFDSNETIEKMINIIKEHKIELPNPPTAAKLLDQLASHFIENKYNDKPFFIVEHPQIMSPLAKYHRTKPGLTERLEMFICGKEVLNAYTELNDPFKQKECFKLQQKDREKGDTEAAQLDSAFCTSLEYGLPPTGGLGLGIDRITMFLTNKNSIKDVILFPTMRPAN
UniProt Q4DA54, 1-478: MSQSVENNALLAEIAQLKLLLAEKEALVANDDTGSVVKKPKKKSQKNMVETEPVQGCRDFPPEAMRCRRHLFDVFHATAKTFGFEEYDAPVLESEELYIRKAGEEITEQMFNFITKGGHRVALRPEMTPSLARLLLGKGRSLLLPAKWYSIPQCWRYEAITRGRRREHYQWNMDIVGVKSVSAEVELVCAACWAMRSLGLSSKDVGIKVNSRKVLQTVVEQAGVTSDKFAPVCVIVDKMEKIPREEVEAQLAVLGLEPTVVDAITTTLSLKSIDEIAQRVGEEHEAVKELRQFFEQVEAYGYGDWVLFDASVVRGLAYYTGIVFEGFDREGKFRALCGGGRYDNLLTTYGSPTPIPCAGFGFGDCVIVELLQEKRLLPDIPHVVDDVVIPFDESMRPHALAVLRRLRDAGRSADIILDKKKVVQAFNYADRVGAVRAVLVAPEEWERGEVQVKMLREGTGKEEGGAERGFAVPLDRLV
UniProt I6X8D2, whole entry: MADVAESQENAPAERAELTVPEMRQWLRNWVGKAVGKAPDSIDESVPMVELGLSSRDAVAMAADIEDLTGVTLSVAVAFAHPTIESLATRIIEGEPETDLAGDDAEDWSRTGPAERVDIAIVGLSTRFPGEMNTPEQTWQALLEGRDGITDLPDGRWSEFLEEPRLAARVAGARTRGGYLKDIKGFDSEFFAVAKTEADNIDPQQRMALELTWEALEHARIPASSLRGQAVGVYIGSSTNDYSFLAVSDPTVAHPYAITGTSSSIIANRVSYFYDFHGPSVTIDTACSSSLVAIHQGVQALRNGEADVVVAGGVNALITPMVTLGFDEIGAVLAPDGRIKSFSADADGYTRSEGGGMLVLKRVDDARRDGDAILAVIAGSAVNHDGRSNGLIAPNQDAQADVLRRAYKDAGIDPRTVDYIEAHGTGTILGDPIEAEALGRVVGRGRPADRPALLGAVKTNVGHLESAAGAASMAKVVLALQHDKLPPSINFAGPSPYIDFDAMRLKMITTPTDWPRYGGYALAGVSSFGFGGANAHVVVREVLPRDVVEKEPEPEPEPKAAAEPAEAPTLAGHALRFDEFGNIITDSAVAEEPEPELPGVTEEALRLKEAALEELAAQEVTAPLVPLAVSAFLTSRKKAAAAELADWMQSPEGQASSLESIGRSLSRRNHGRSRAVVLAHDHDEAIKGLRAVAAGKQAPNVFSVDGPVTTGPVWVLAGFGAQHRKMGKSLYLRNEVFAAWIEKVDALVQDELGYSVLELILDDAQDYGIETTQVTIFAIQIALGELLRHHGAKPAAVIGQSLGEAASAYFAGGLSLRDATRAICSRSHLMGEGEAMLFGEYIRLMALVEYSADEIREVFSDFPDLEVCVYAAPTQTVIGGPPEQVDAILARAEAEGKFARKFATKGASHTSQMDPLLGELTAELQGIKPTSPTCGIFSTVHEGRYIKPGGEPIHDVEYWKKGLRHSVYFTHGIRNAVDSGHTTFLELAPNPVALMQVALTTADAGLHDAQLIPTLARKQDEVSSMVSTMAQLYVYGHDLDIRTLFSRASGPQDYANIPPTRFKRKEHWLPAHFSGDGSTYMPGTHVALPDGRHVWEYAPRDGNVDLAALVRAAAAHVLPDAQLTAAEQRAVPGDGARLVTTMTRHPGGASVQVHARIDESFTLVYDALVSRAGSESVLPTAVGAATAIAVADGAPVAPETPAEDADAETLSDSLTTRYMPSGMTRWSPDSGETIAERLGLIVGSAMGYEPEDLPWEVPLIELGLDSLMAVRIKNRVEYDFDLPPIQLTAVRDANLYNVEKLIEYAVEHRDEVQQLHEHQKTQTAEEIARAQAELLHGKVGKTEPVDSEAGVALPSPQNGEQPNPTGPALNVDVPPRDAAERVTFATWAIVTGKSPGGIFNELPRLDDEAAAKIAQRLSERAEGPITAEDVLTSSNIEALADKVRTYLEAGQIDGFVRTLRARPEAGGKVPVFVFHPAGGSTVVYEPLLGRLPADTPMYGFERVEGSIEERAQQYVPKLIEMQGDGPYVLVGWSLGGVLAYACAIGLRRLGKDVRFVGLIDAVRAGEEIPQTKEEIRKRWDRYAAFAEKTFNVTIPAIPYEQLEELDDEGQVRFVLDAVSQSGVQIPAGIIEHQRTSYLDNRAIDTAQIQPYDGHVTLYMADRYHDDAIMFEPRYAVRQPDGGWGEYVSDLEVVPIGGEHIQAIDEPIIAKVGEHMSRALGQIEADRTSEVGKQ

A: 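Enzyme assay of the cytosolic lysyl-tRNA synthetase in 384-well plates, read by luminescence. Target: Lysine-tRNA ligase, Plasmodium falciparum 3D7 (UniProt Q8IDJ8). Concentration: 30 µM. Higher reads as stronger inhibition, judged from the few compounds that gave an IC50. Of about 69,000 compounds tested this way, about 49 (0.071%) reached 50% or more in at least one test.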
B: 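Histidine-tRNA ligase, Trypanosoma cruzi CL Brener (UniProt Q4DA54). Enzyme assay of histidyl-tRNA synthetase; the read-out is not stated. Compounds at 30 µM. Direction is inferred from retests: higher values go with stronger inhibition. Size under these conditions: about 69,000 compounds, about 31 of them at 50% or above in at least one test.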
C: 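Polyketide synthase Pks13, Mycobacterium tuberculosis (UniProt I6X8D2). Enzyme assay of the thioesterase domain of polyketide synthase 13; the read-out is not stated. Tested at 30 µM. Higher reads as stronger inhibition (inferred from which compounds were picked for retests). Of about 67,000 compounds tested this way, about 300 (0.46%) reached 50% or more in at least one test.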

Results are given as percent effect. The record does not define 0% and 100%; most values in the screen are far below 50% and negative numbers occur (in some assays of this library far below -100). The compounds are a random part of those screened. A dash means the value is not listed here; it may have been measured.

compound,A,B,C
COC(=O)C(NC(=O)C(C)C)c1cc(F)ccc1F (stereo unspecified),-1.472%,0.7634%,-8.446%
Cc1noc(C)c1CN1CCO[C@H]2CN(Cc3cncn3C)C[C@H]21,-3.332%,12%,6.83%
Cc1cc(C)n(CCNC(=O)c2cc(C3CC3)n[nH]2)n1,0.4406%,3.802%,-11.81%
CC(C)OCCN1CCC(Nc2ncc(Br)cn2)CC1,0.5325%,9.045%,0.9077%
Nc1nc2c(c(N3CCCC(CN4CCCC4=O)C3)n1)CCNCC2 (stereo unspecified),0.1326%,3.896%,-5.452%
O=C(c1ccc(-c2nc[nH]n2)cc1)N1CC[C@H](CO)[C@@H](O)C1,6.12%,1.948%,-20.56%
Cc1cccnc1C(=O)N1C[C@@H]2CC[C@H](Oc3cccc(F)c3)[C@@H]2C1,0.464%,4.494%,-4.049%
CCOCc1cnc2n1CCN(C(=O)c1cn(C)c3ccccc13)C2C (stereo unspecified),1.536%,3.518%,-14.8%
Cc1cc2c(N3CCC(N(C)Cc4cnn(C)c4)CC3)ncnc2s1,-3.081%,2.632%,-5.716%
Cc1cc(C(F)(F)F)cc(N2C[C@@H](CN3CCOCC3)[C@@H](CO)C2)n1,3.66%,8.537%,18.42%
CCn1cc(-c2n[nH]c(=O)n2-c2ccc(OC)c(OC)c2)c(C)n1,5.685%,-1.064%,-15.06%
CCCNC(=O)CNc1ccccc1OCCC(=O)OC,4.811%,4.124%,-3.482%
Cc1ccc(CN2CCOC3(CCN(CC4CCOC4)CC3)C2)cc1 (stereo unspecified),5.768%,8.466%,-
Cc1cnn(CC2CCCN2CC(=O)NC2CCN(C3CC3)CC2)c1 (stereo unspecified),4.339%,0.5634%,-17.04%
Cc1ccc(C(=O)N(C)CCCc2cnn(C)c2)cc1N1CCNC1=O,3.754%,-1.22%,32.33%
Cc1ccc(CNC(=O)N2CCCC(NS(C)(=O)=O)C2)cc1 (stereo unspecified),-0.149%,6.706%,-19.47%
COc1cccc(-c2nc(C)c(C(=O)N[C@@H](CC(C)C)C(=O)O)s2)c1,1.261%,5.263%,-9.172%
CC(C)NC(=O)c1nnc2ccc(N3CCOCC3)cc2n1,-0.7961%,0.8696%,-
CN(C)Cc1ccnc(C2CN(Cc3nccs3)CCO2)n1 (stereo unspecified),3.879%,5.556%,-6.901%
COc1ncccc1CNC(=O)NCCNC(=O)c1ccco1,-1.424%,-1.132%,-8.446%
COCCn1ccc(NC(=O)Nc2ccccc2)n1,0.7973%,5%,-1.417%
O=C1CCCCN1Cc1cccc(OC(F)F)c1,-7.47%,5.217%,-4.289%
O=C(c1ncc(F)cc1F)N1CCC(c2ncc[nH]2)CC1,2.585%,6.468%,-17.39%
CC(C)CCN1CCC2(CC1)CN(C(=O)c1cnccn1)CCO2,-0.356%,2.703%,-9.488%
COC(=O)[C@@H](Nc1nc(C2CCCC2)nc2c1cnn2C)[C@@H](C)O,2.09%,4.046%,-11.8%
CCNc1ncc(C(=O)NCC2OCCc3ccccc32)cn1 (stereo unspecified),1.42%,-1.149%,-37.4%
COC(CNC(=O)c1cc(C)on1)c1ccccc1C (stereo unspecified),3.105%,5.366%,-4.878%
CCOC(=O)C1CCN(c2cc(C(=O)N3CCOCC3)nc(C)n2)CC1,4.045%,-23.68%,-38.46%
c1cnc(-c2nc(CN3CCn4c(nnc4C4CC4)C3)cs2)nc1,9.489%,4.167%,19.68%
CCOc1cccc(CN2CCCC(Nc3ccc(F)cc3)C2)c1O (stereo unspecified),4.705%,-8.14%,-37.83%
CN(C)c1nccc(NCc2cc(-c3ccco3)n[nH]2)n1,3.258%,10.17%,29.37%
CCn1cc(CN2CCC3(CC2)c2ccccc2CC3O)cn1 (stereo unspecified),3.442%,1.288%,-13.73%
O=C(NC(Cc1ccsc1)c1nccs1)C1CCOCC1 (stereo unspecified),5.213%,3.784%,-32.43%
Cc1cc(C)n(C2CCCN(C(=O)c3csc(C4CC4)n3)C2)n1 (stereo unspecified),0.6085%,0.578%,-8.452%
Cn1ncc2ccc(C3CCCN(Cc4cccs4)C3)nc21 (stereo unspecified),0.2705%,7.28%,-0.6621%
Cc1cccc(CN2C[C@@H]3COC[C@]3(COc3cccnc3)C2)n1,-1.782%,5.521%,8.463%
CS(=O)(=O)N1CCN(C(=O)Cn2ccc3c(Cl)cccc32)CC1,-2.588%,9.091%,5.164%
O=S(=O)(NCc1ccc(S(=O)(=O)N2CCCC2)s1)c1ccc(F)cc1Cl,4.873%,4.094%,-13.32%
Cc1cc(C(=O)N2CCN[C@H](C)C2)c2ccc(F)cc2n1,-4.452%,6%,4.62%
COc1cccc(CCNC(=O)NC(C)C)c1O,1.768%,1.961%,6.428%
CCn1cnnc1CNC(=O)N(C)Cc1ccccc1OC,13.26%,0.4926%,-19.83%
COc1ccc(CCNC(=O)C2CC2)c(Cl)c1,-1.066%,6.122%,3.202%
O=C(NCc1ccccc1)N1CCC(Oc2ncccc2Cl)CC1,0.1832%,-4.444%,8.242%
COc1c(CNCc2ccc(N3CCOCC3)nc2)c(C)nn1C,1.12%,1.63%,-21.78%
Cc1cccc(N(C)S(=O)(=O)c2cc(C(=O)O)cs2)c1,-2.356%,4.298%,-13.93%
CCOCC(O)CN1CCN(C(=O)c2ccc(OC)cc2)CC1 (stereo unspecified),2.503%,8.571%,-9.379%
CC(C)n1[nH]c(=O)c2c1NC(=O)CC2c1cccnc1 (stereo unspecified),-0.7753%,-4.959%,-5.729%
Cn1ccc(C(=O)N2CCC(Cc3cnc4[nH]ccc4c3)C2)n1 (stereo unspecified),2.775%,7.778%,-7.21%
Cc1nn(C(C)C)c(C)c1NC(=O)c1ccncc1,-2.344%,0%,-9.107%
Cc1nc(CN(C)C2CCN(Cc3c(C)noc3C)C2)no1 (stereo unspecified),15.19%,5.882%,-13.06%
O=C(CN1CCCC1Cn1cncn1)Nc1ccnn1C1CCCC1 (stereo unspecified),4.1%,6.696%,-0.04359%
CC(=O)N1CC(c2n[nH]c3ncccc23)C1,0.3433%,2.326%,-11.46%
CCCc1nnnn1Cc1cn2c(C)cccc2n1,-0.3534%,-1.961%,-14.47%
CCc1nccn1C1CCCN(C(=O)c2cnc3ccccc3n2)C1 (stereo unspecified),-4.005%,2.174%,-28.68%
O=C(NCc1cncc2c1CCN(C1CCOCC1)C2)c1ccco1,2.448%,5.028%,-7.274%
COC(=O)CN(C(=O)c1ccc(-n2ccnc2)cc1)C1CC1,3.495%,3.982%,-160.6%
CC(C#N)CSc1ccccc1NCC(=O)NC(C1CC1)C1CC1 (stereo unspecified),1.133%,0%,-9.584%
O=C(c1ccnnc1)N1CCO[C@H]2[C@@H](OCc3cccnc3)CC[C@@H]21,8.273%,2.941%,-34.83%
COCCNC(=O)c1cc(OC)ccc1Br,4.093%,5.946%,-0.2836%
COCC(=O)N(Cc1ccc2[nH]ccc2c1)C1CC1,3.47%,3.727%,-11.01%
CCSc1cc(C(=O)NCc2ccc(C(=O)NC)cc2)ccn1,1.735%,1.84%,4.213%
CC(C)c1n[nH]c(C2CN(CCc3cccs3)CCO2)n1 (stereo unspecified),2.278%,4.843%,-13.68%
CN(C)c1ccc(CNC2(c3ccc(F)cc3)CCOCC2)cc1F,7.768%,4.348%,-94.37%
CC(C)n1cc(CN(Cc2ccc(F)cc2)CC2CCCO2)cn1 (stereo unspecified),-0.2443%,-0.8696%,-15.06%

Repeated from the top, 4 entries:

{"compound": "COC(=O)C(NC(=O)C(C)C)c1cc(F)ccc1F", "stereo": "stereo unspecified", "A": -1.472, "B": 0.7634, "C": -8.446}
{"compound": "Cc1noc(C)c1CN1CCO[C@H]2CN(Cc3cncn3C)C[C@H]21", "A": -3.332, "B": 12, "C": 6.83}
{"compound": "Cc1cc(C)n(CCNC(=O)c2cc(C3CC3)n[nH]2)n1", "A": 0.4406, "B": 3.802, "C": -11.81}
{"compound": "CC(C)OCCN1CCC(Nc2ncc(Br)cn2)CC1", "A": 0.5325, "B": 9.045, "C": 0.9077}

The values are deposited in ChEMBL (CHEMBL3988442, “University of Dundee, Small-Polar-MMV Screening Library” (2021)).